These are yes or no findings as the source states them, for the method shown. Some binding calls cover weakened binding; strength is not graded here. For some assays here: Where a sequence is shown, tags or fusion partners need not be part of it.
How the values were obtained:
[1] = molecular target: murine CD8α fused to eGFP or mCherry through a GSGGGS linker (murine) (UniProt P01731); experiment: fluorescence cross-correlation spectroscopy
[2] = molecular target: human rhomboid protease RHBDL2 fused to eGFP or mCherry at its N-terminus (human) (UniProt Q9NX52); experiment: fluorescence cross-correlation spectroscopy

Chains of the proteins cited; added tags and fusions are not shown. Residues count along the entry.
UniProt P01731, residues 28-247: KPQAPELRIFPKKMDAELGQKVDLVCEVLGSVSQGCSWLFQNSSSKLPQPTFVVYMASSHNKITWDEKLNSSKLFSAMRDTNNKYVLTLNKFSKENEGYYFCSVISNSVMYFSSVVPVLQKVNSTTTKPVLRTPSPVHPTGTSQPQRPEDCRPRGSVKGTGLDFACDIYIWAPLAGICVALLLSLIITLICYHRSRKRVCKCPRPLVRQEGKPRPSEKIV

| Molecule | binding [1] | binding [2] |
| --- | --- | --- |
| murine CD8α fused to eGFP or mCherry through a GSGGGS linker (from UniProt P01731 28-247) (receptor) | binds |  |
| human rhomboid protease RHBDL2 fused to eGFP or mCherry at its N-terminus (enzyme, UniProt Q9NX52-1 1-303) MAAVHDLEMESMNLNMGREMKEELEEEEKMREDGGGKDRAKSKKVHRIVSKWMLPEKSRGTYLERANCFPPPVFIISISLAELAVFIYYAVWKPQKQWITLDTGILESPFIYSPEKREEAWRFISYMLVHAGVQHILGNLCMQLVLGIPLEMVHKGLRVGLVYLAGVIAGSLASSIFDPLRYLVGASGGVYALMGGYFMNVLVNFQEMIPAFGIFRLLIIILIIVLDMGFALYRRFFVPEDGSPVSFAAHIAGGFAGMSIGYTVFSCFDKALLKDPRFWIAIAAYLACVLFAVFFNIFLSPAN |  | no binding |
